Experimental data: PubChem BioAssay AID493246 (Drosophila RNAi Screening Center, 2011)
In all, the deposit lists about 21,000 reagents; below is a random part of those with a known target gene and a result. Of all reagents, 429 (2%) are marked active. 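Values are raw and not normalised between plates; calls rest on per-plate z-scores that were not deposited.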 Unmarked entries are inactive. The record does not give: the amount of reagent, the time to read-out.

Aim: 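Genome-wide search for dsRNAs that reduce cell number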 (primary screen)
Cells: Drosophila Kc and S2R+ cells
Reagents: long dsRNA against Drosophila genes
Read-out: 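Cell number per well after knock-down, printed as raw plate values; calls were based on per-plate z-scores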
Reading the numbers: Kc cell number and S2R+ cell number: higher = more cells remaining
Hit rule: 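Counted as a hit if cell number falls by a z-score of at least 3 within its plate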

Silencing of CG13068 (GeneID 39784) [DRSC09951] resulted in: Kc cell number, rep 1 = 1.51e6; Kc cell number, rep 2 = 1.72e6; S2R+ cell number, rep 1 = 1.33e6; S2R+ cell number, rep 2 = 1.47e6.
Knock-down of Ssb-c31a (GeneID 34120) [DRSC03443] gave: Kc cell number, rep 1 = 1.74e6; Kc cell number, rep 2 = 1.76e6; S2R+ cell number, rep 1 = 1.17e6; S2R+ cell number, rep 2 = 1.35e6.
Knock-down of koi (GeneID 35594) [DRSC04980] came out at: Kc cell number, rep 1 = 1.54e6; Kc cell number, rep 2 = 1.67e6; S2R+ cell number, rep 1 = 1.26e6; S2R+ cell number, rep 2 = 1.34e6.
Knock-down of CG14237 (GeneID 43194) [DRSC14731] gave: Kc cell number, rep 1 = 1.61e6; Kc cell number, rep 2 = 1.66e6; S2R+ cell number, rep 1 = 9.71e5; S2R+ cell number, rep 2 = 1.16e6.
Knock-down of CG7148 (GeneID 40432) [DRSC11802] resulted in: Kc cell number, rep 1 = 1.59e6; Kc cell number, rep 2 = 1.64e6; S2R+ cell number, rep 1 = 1.45e6; S2R+ cell number, rep 2 = 1.36e6.
For roq (GeneID 39818) [DRSC10227], the values are Kc cell number, rep 1 = 1.60e6; Kc cell number, rep 2 = 1.58e6; S2R+ cell number, rep 1 = 1.45e6; S2R+ cell number, rep 2 = 1.53e6.
Silencing of Set2 (GeneID 32301) [DRSC19765] came out at: Kc cell number, rep 1 = 6.57e5; S2R+ cell number, rep 1 = 9.74e5.
For CR30374 (GeneID 10178922) [DRSC05080], the values are Kc cell number, rep 1 = 1.64e6; Kc cell number, rep 2 = 1.78e6; S2R+ cell number, rep 1 = 1.03e6; S2R+ cell number, rep 2 = 1.15e6.

2 of these entries, set out differently:
| predicted target | amplicon | Kc cell number, rep 1 | Kc cell number, rep 2 | S2R+ cell number, rep 1 | S2R+ cell number, rep 2 |
| --- | --- | --- | --- | --- | --- |
| CG7148 (GeneID 40432) | DRSC11802 | 1.59e6 | 1.64e6 | 1.45e6 | 1.36e6 |
| roq (GeneID 39818) | DRSC10227 | 1.60e6 | 1.58e6 | 1.45e6 | 1.53e6 |

The list goes on:
With knock-down of Sap30 (GeneID 32664) [DRSC19916], the record shows Kc cell number, rep 1 = 1.58e6; Kc cell number, rep 2 = 1.57e6; S2R+ cell number, rep 1 = 1.04e6; S2R+ cell number, rep 2 = 1.21e6.
For CG6118 (GeneID 41884) [DRSC15968] the deposit lists Kc cell number, rep 1 = 3.90e5 (active); Kc cell number, rep 2 = 4.86e5; S2R+ cell number, rep 1 = 7.11e5; S2R+ cell number, rep 2 = 8.09e5.
dve (GeneID 37546) [DRSC04680] showed Kc cell number, rep 1 = 1.61e6; Kc cell number, rep 2 = 1.76e6; S2R+ cell number, rep 1 = 1.36e6; S2R+ cell number, rep 2 = 5.41e5.
Against AspRS-m (GeneID 326155) [DRSC02646], the values are Kc cell number, rep 1 = 1.56e6; Kc cell number, rep 2 = 1.60e6; S2R+ cell number, rep 1 = 1.24e6; S2R+ cell number, rep 2 = 1.38e6.
